Data taken from the supplement of paper PMC9233669.
Variants at the background level are over-represented here.

What was measured:
biotinyl-Phe-oxazolone = assay: self-aminoacylation, catalytic enhancement (BFO) (fold over background); higher = more active; k-Seq, kA / k0A0; sequences stand for … in GGGAAUGGAUCCACAUCUACGAAUUC…UUCACUGCAGACUUGACGAAGCUG
Method in brief: (§1)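 The uncatalyzed rate is the low-activity peak of a bimodal Gaussian fit, and catalytic enhancement is median kA divided by it. The kA values came from pseudo-first-order fits, with 1000 bootstraps, of per-sequence fraction reacted measured by streptavidin capture, triplicate qPCR and Illumina sequencing. Mutagenized RNA pools with a 21-nt variable region (0.43 μM) were reacted with each biotinyl-aminoacyl-oxazolone at 2–1250 μM in 50 μL HEPES/NaCl/KCl/MgCl2/CaCl2 buffer with 5% acetonitrile, pH 6.9–7.0, for 90 minutes at room temperature.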

biotinyl-Leu-oxazolone = assay: self-aminoacylation, catalytic enhancement (BLO) (fold over background); higher = more active; k-Seq, kA / k0A0; sequences stand for … in GGGAAUGGAUCCACAUCUACGAAUUC…UUCACUGCAGACUUGACGAAGCUG
Method in brief: as §1

biotinyl-Met-oxazolone = assay: self-aminoacylation, catalytic enhancement (BMO) (fold over background); higher = more active; k-Seq, kA / k0A0; sequences stand for … in GGGAAUGGAUCCACAUCUACGAAUUC…UUCACUGCAGACUUGACGAAGCUG
Method in brief: as §1

biotinyl-Val-oxazolone = assay: self-aminoacylation, catalytic enhancement (BVO) (fold over background); higher = more active; k-Seq, kA / k0A0; sequences stand for … in GGGAAUGGAUCCACAUCUACGAAUUC…UUCACUGCAGACUUGACGAAGCUG
Method in brief: as §1

biotinyl-Ile-oxazolone = assay: self-aminoacylation, catalytic enhancement (BIO) (fold over background); higher = more active; k-Seq, kA / k0A0; sequences stand for … in GGGAAUGGAUCCACAUCUACGAAUUC…UUCACUGCAGACUUGACGAAGCUG
Method in brief: as §1

biotinyl-Trp-oxazolone = assay: self-aminoacylation, catalytic enhancement (BWO) (fold over background); higher = more active; k-Seq, kA / k0A0; sequences stand for … in GGGAAUGGAUCCACAUCUACGAAUUC…UUCACUGCAGACUUGACGAAGCUG
Method in brief: as §1

Sequence	self-aminoacylation (biotinyl-Phe-oxazolone)	self-aminoacylation (biotinyl-Leu-oxazolone)	self-aminoacylation (biotinyl-Met-oxazolone)	self-aminoacylation (biotinyl-Val-oxazolone)	self-aminoacylation (biotinyl-Ile-oxazolone)	self-aminoacylation (biotinyl-Trp-oxazolone)
CUACUUCAAACAAACGGUAUG [Fam1A.1 aminoacylation ribozyme variant]	0.892	0.638	0.61	0.723	0.599	0.462
CUACUUCAAACAAACGGUCCG [Fam1A.1 aminoacylation ribozyme variant]	0.523	1.12	1.28	0.805	0.899	0.61
CUACUUCAAACAACCGGUCUU [Fam1A.1 aminoacylation ribozyme variant]	0.875	0.871	0.686	0.899	1.32	1.05
CUACUUCAAACAAGCGGUAUG [Fam1A.1 aminoacylation ribozyme variant]	0.975	0.715	1.15	0.826	0.894	0.632
CUACUUCAAACAAGCGGUCCG [Fam1A.1 aminoacylation ribozyme variant]	0.628	1.24	0.903	1.07	0.989	0.572
CUACUUCAAACAAUAAGUCUG [Fam1A.1 aminoacylation ribozyme variant]	0.951	0.695	0.579	0.755	0.716	0.579
CUACUUCAAACAAUACGUCUG [Fam1A.1 aminoacylation ribozyme variant]	0.917	0.648	0.677	0.886	0.792	0.574
CUACUUCAAACAAUCCGACUG [Fam1A.1 aminoacylation ribozyme variant]	1.02	0.419	0.442	0.645	0.626	0.415
CUACUUCAAACAAUCGGCAUG [Fam1A.1 aminoacylation ribozyme variant]	1.1	0.956	0.773	1.06	0.965	1.15
CUACUUCAAACAAUCGGUCCA [Fam1A.1 aminoacylation ribozyme variant]	1.79	0.633	0.654	0.757	0.753	0.907
CUACUUCAAACAAUCGGUUGG [Fam1A.1 aminoacylation ribozyme variant]	3.55	0.788	0.619	0.812	0.843	1.82
CUACUUCAAACAAUCGUGCUG [Fam1A.1 aminoacylation ribozyme variant]	1.07	0.753	0.666	0.6	0.645	0.748
CUACUUCAAACAAUCUGUCCG [Fam1A.1 aminoacylation ribozyme variant]	0.923	0.729	0.8	0.814	0.891	0.656
CUACUUCAAACAAUCUGUCUA [Fam1A.1 aminoacylation ribozyme variant]	0.811	0.598	0.641	0.801	0.853	0.525
CUACUUCAAACAAUGGAUCUG [Fam1A.1 aminoacylation ribozyme variant]	0.857	0.736	0.715	0.881	0.876	0.398
CUACUUCAAACAAUGGGACUG [Fam1A.1 aminoacylation ribozyme variant]	0.509	0.493	0.691	0.592	0.759	0.485
CUACUUCAAACAAUUGGUAUG [Fam1A.1 aminoacylation ribozyme variant]	0.89	0.755	0.899	0.778	0.888	0.533
CUACUUCAAACAAUUUGUCUG [Fam1A.1 aminoacylation ribozyme variant]	0.817	0.681	0.944	0.847	0.886	0.603
CUACUUCAAACACUUGGUCUG [Fam1A.1 aminoacylation ribozyme variant]	0.487	0.713	0.633	0.686	0.712	0.555
CUACUUCAAACAGUCGGACUG [Fam1A.1 aminoacylation ribozyme variant]	0.77	0.564	0.697	0.826	0.853	0.682
CUACUUCAAACAUCCGGUCUG [Fam1A.1 aminoacylation ribozyme variant]	1.62	1.37	1.16	1.07	1.23	0.795

Sequence	self-aminoacylation (biotinyl-Phe-oxazolone)	self-aminoacylation (biotinyl-Leu-oxazolone)	self-aminoacylation (biotinyl-Met-oxazolone)	self-aminoacylation (biotinyl-Val-oxazolone)	self-aminoacylation (biotinyl-Ile-oxazolone)	self-aminoacylation (biotinyl-Trp-oxazolone)
CUACUUCAAACAUUCGGACUG [Fam1A.1 aminoacylation ribozyme variant]	0.626	0.973	0.972	1.22	1.08	1.23
CUACUUCAAACGAUCGGUCGG [Fam1A.1 aminoacylation ribozyme variant]	1.27	1.16	1.39	1.15	0.961	0.765
CUACUUCAAACGAUCGGUCUU [Fam1A.1 aminoacylation ribozyme variant]	0.949	0.656	0.781	0.767	0.775	0.655
CUACUUCAAACUAUCGGACUG [Fam1A.1 aminoacylation ribozyme variant]	0.65	0.697	0.643	0.893	0.935	0.547
CUACUUCAAACUAUCGGUCCG [Fam1A.1 aminoacylation ribozyme variant]	0.581	0.718	0.619	0.888	0.765	0.414
CUACUUCAAACUAUCGGUUUG [Fam1A.1 aminoacylation ribozyme variant]	0.88	0.829	0.748	0.961	0.944	0.697
CUACUUCAAACUUUCGGUCUG [Fam1A.1 aminoacylation ribozyme variant]	1.12	1.24	1.21	1.24	1.23	1.09
CUACUUCAAAGAAUCGGACUG [Fam1A.1 aminoacylation ribozyme variant]	1.29	0.818	0.91	0.808	0.992	0.932
CUACUUCAAAGAAUCUGUCUG [Fam1A.1 aminoacylation ribozyme variant]	1.11	0.616	0.567	0.696	0.674	0.654
CUACUUCAAAUAAUCCGUCUG [Fam1A.1 aminoacylation ribozyme variant]	1.35	0.732	0.701	0.81	0.756	1.01
CUACUUCAAAUAAUCGAUCUG [Fam1A.1 aminoacylation ribozyme variant]	1.94	0.495	0.534	0.592	0.669	0.839
CUACUUCAAAUACUCGGUCUG [Fam1A.1 aminoacylation ribozyme variant]	0.622	0.807	0.972	0.84	0.832	0.71
CUACUUCAACCGAUCGGUCUG [Fam1A.1 aminoacylation ribozyme variant]	1.14	0.788	0.979	0.917	0.763	1.43
CUACUUCAAGCAGUCGGUCUG [Fam1A.1 aminoacylation ribozyme variant]	0.717	1.08	0.983	0.918	0.938	0.737
CUACUUCAAGCGAUCGGUCUG [Fam1A.1 aminoacylation ribozyme variant]	0.917	0.799	0.769	0.781	0.77	0.654
CUACUUCACACAAUCGGUCCG [Fam1A.1 aminoacylation ribozyme variant]	0.558	0.929	0.883	0.955	0.991	0.87
CUACUUCAGACAAUCAGUCUG [Fam1A.1 aminoacylation ribozyme variant]	0.913	0.567	0.568	0.663	0.734	0.473
CUACUUCAGACAGUCGGUCUG [Fam1A.1 aminoacylation ribozyme variant]	0.272	0.752	0.662	0.972	0.778	0.672
CUACUUCAUACAAUCGGUCUC [Fam1A.1 aminoacylation ribozyme variant]	0.696	0.636	0.72	0.789	0.839	0.426
CUACUUCAUCCAAUCGGUCUG [Fam1A.1 aminoacylation ribozyme variant]	0.483	0.533	0.76	0.709	0.706	0.414
CUACUUCCAAAAAUCGGUCUG [Fam1A.1 aminoacylation ribozyme variant]	0.806	0.832	1.03	0.85	0.907	0.959
